Assay results published in PMC9279315.
Results are given in words; binding and its absence hold for the method and conditions named. In cells and extracts the contact can be indirect. Some results given as binding are weak or reduced against the parent protein; the word gives no strength.

Protein sequences, listed by entry. Tags and fused reporters are not part of them.
UniProt Q9EPK5: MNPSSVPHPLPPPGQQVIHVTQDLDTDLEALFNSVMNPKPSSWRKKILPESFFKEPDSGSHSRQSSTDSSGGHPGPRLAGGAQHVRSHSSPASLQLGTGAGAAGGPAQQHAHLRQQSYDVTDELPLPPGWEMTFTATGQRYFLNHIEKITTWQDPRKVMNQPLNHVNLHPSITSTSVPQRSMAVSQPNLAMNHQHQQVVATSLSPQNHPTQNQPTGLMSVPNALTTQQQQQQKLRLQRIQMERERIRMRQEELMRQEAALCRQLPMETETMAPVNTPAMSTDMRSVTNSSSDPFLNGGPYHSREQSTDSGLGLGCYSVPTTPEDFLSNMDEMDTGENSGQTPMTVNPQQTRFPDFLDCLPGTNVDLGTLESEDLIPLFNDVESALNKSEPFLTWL
UniProt P02340: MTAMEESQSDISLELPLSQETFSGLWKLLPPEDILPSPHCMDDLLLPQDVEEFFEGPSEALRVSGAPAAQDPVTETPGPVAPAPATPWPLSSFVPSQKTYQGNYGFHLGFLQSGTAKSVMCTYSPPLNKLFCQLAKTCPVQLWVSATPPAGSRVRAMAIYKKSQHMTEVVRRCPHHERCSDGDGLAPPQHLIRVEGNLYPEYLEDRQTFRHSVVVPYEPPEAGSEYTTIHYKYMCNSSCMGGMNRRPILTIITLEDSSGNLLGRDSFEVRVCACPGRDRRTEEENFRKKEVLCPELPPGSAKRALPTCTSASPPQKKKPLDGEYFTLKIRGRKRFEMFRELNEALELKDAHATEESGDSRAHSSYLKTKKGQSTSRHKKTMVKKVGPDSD

Molecular target: flag-TAZ (transcriptional co-activator with PDZ-binding domain) (UniProt Q9EPK5)
Assay: co-IP; HEK293T cells transfected with plasmid GFP-Trp53 or/and flag-TAZ; which partner was precipitated is not told

Substance: GFP-Trp53 (transformation-related protein 53) (from UniProt P02340 1-390)
- binding: binds
